In US20230174581A1, “PROCESSES AND AGENTS FOR GLAUCOMA” (AUFBAU MEDICAL INNOVATIONS LIMITED, priority 2020, published 2023):

Assay: Dose-response of IOP reduction in bovine vitreous humor (BVH) glaucoma model, microfluidic chip device
Details: 12.5% BVH, incubated at 37° C. for 1 hour; 7 ul injected; read-out: EC50 for treatment of glaucoma in a bovine vitreous model (IOP reduction)
Procedure: Bovine vitreous after homogenization was used to model human disease because it mimicked elevated IOP in humans. […] Once it was added to BVH, the final water concentration was 0.5%. […] Once added to BVH, the final DMSO concentration was 0.5%. […] The pellet was resuspended with PBS and concentrated by 2.5X fold. For treatment of BVH with compound, 25 ul of enriched BVH was added to 25 ul of Compound and incubated for 1 hour in a thermocycler at 37° C., then 5 ul of 5 mM CFSE was added, and the sample incubated in a thermocycler at 37° C. for 30 minutes. EC50 was estimated by plotting the logarithmic functions of the micromolar concentration of the drug in the x axis against the percent of maximal response in the y axis. The maximal response was taken as the value of the response for the highest drug concentration. The response was calculated by taking the absolute difference between the control and test value for each concentration. The compound colistin sulfate was tested in bovine vitreous humor (BVH) glaucoma model in a microfluidic chip device. […] The test compound-BVH solution was introduced into the reservoir of the microfluidic chip device and flow rate and pressure change were recorded. […] The response was calculated by taking the absolute difference between the control and test value for each concentration.

## CCCCCCCCCCCCCCCC[n+]1ccccc1 [cetylpyridinium chloride, 1-hexadecylpyridin-1-ium]
  EC50: 0.89 nM
